Results deposited as PubChem BioAssay AID686937 (Drosophila RNAi Screening Center, 2013)
Aim: 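Knock-downs that reduce output of a secreted reporter enzyme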 (primary screen). System: Drosophila S2 cells expressing secreted horseradish peroxidase. Reagents: long dsRNA against Drosophila genes. Duration: about 5.5 days (5 days dsRNA, then 12 h reporter induction). Conditions: reporter expression induced after 5 days of dsRNA, read 12 h later; inducer not stated. Detection: 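After 5 days of dsRNA and 12 h of reporter induction, medium peroxidase read by chemiluminescence and scored as per-plate z-score; higher values mean more reporter released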. Reading the numbers: z-score: higher = more reporter secreted into medium.
In all, the deposit lists about 23,000 reagents; below is an unselected part of those that have a named target and a result. 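Reduced-secretion tags in replicate 1 do not always agree with the z-scores; no criterion for assigning the tags was given.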 A plus sign joins genes that one reagent is predicted to hit. The record does not give: the amount of reagent.

Target gene,PubChem SID,"z-score, replicate 1","z-score, replicate 2","z-score, replicate 3","z-score, replicate 4","phenotype, replicate 1"
CG14323,SID104194594,0.04,0.02,,,
CG11755,SID104194166,0.32,0.45,,,
CG17140 + CG17139,SID104182377,0.31,0.43,,,
CG17140 + CG17139,SID104182378,0.38,0.27,,,
CG31637,SID104182062,0.22,0.32,,,
CG31637,SID104183055,0.39,0.54,,,
Cad86C,SID104195379,0.36,0.69,,,
Cad86C,SID104195403,-0.01,0.34,,,
CG4619,SID104182556,0.11,0.4,,,
CG12099,SID104188045,-3.19,0.59,,,reduced secretion
udd,SID104186512,0.26,0.58,,,
CG43333,SID104181709,0.5,0.61,,,
CG42673,SID104188781,0.38,0.44,,,
CG42673,SID104188783,-3.96,-2.93,,,reduced secretion
CG42673,SID104189969,-0.78,-0.15,,,
CG42673,SID104190056,-0.25,0.24,,,
CG42673,SID104190145,0.37,0.1,,,
CG42673,SID104190146,0.41,0.44,,,
CG10927,SID104185806,-5.25,-4.1,,,reduced secretion
CG12402,SID104194300,0.48,0.35,,,
CG10064,SID104189481,0.21,0.33,,,
eIF3i,SID104183256,-2.55,-3,,,reduced secretion
dhd,SID104198553,0.01,0.08,,,
EloB,SID104196455,-0.03,0.27,,,
rempA,SID104180119,0.24,0.13,,,
CG15743,SID104199501,0.46,0.41,,,
CG3776,SID104184209,0.5,0.42,,,
Polr2C,SID104183207,-4.16,-3.73,,,reduced secretion
Scgalpha,SID104182868,0.58,0.42,,,
CG42260,SID104183964,0.28,0.02,,,
CG42260,SID104184177,0.2,0.34,,,
CG4080,SID104190190,0.4,0.5,,,
CG2004,SID104197992,0.29,0.6,,,
CG32269 + CG32270,SID104187987,0.28,0.26,,,
Kpc1,SID104195899,0.29,0.7,,,
Cyp12d1-d + Cyp12d1-p,SID104201231,1.38,0.14,,,
Mhc,SID104183159,-0.07,-0.09,,,
Kdm4B,SID104186654,0.23,-0.48,,,
CG1161,SID104191972,-2.52,-1.89,,,reduced secretion
CG34012,SID104188881,-0.35,-0.24,,,
Saf6,SID104180425,0.5,0.6,,,
RhoGAP15B,SID104199716,0.06,0.21,,,
RhoGAP15B,SID104199717,0.01,-0.01,,,
Fit1,SID104188242,1.05,0.66,,,
Ist1,SID104189489,0.03,0.52,,,
spz6,SID104184325,-0.18,-0.07,,,
CG14715,SID104194730,0.01,0.11,,,
CG32652 (retired record),SID104198734,0.57,0.38,0.69,0.4,
CG32652 (retired record),SID104202059,-0.4,0.17,,,
CG44085,SID104182714,-4.77,-3.51,,,reduced secretion
CG44085,SID104182721,0.56,0.61,,,
Cyp4e3,SID104183098,0.29,0.19,,,
CG12236,SID104197622,-4.18,-1.79,,,reduced secretion
CG12236,SID104197623,0.35,0.39,,,

Continued; the last 7 above are carried over.
Target gene,PubChem SID,"z-score, replicate 1","z-score, replicate 2","z-score, replicate 3","z-score, replicate 4","phenotype, replicate 1"
CG32652 (retired record),SID104198734,0.57,0.38,0.69,0.4,
CG32652 (retired record),SID104202059,-0.4,0.17,,,
CG44085,SID104182714,-4.77,-3.51,,,reduced secretion
CG44085,SID104182721,0.56,0.61,,,
Cyp4e3,SID104183098,0.29,0.19,,,
CG12236,SID104197622,-4.18,-1.79,,,reduced secretion
CG12236,SID104197623,0.35,0.39,,,
CG9166,SID104187634,-0.08,0.27,,,
Prosalpha3T,SID104195018,0.15,-0.92,,,
CG8993,SID104188408,0.31,0.22,,,
CG15208,SID104199446,0.06,0.02,,,
dgt2,SID104182340,1.14,0.51,,,
cd,SID104195949,0.46,0.12,,,
CG31415,SID104201885,-0.84,-0.43,,,
Inos,SID104187447,0.24,0.03,,,
CG9752,SID104184354,-0.03,-0.2,,,
CG15536,SID104194864,0.47,0.44,0.3,0.29,
CG15536,SID104202203,-0.14,0,,,
sbm,SID104199977,0.52,0.32,,,
RAF2,SID104190235,0.25,0.27,,,
RAF2,SID104190246,0.23,0.16,,,
CG10465,SID104184640,0.14,0.1,,,
Sec24CD,SID104180092,-0.48,-0.96,,,
Sgs8,SID104191074,0.37,0.25,,,
mmy,SID104181794,-0.64,-1.26,,,
CG43322,SID104182072,0.07,0.02,,,
CycG,SID104194116,0.29,0.43,,,
Amt,SID104195847,0.28,0.24,,,
Set2,SID104199557,0.08,-0.09,,,
CG3184,SID104198081,0.29,0.39,,,
CG4741,SID104184020,0.14,0.44,,,
CG4741,SID104184277,0.19,-0.01,,,
CG13614,SID104194409,0.19,-6.4,,,
Tsp39D,SID104182891,0.11,0.02,,,
lost,SID104191794,0.59,0.45,,,
lost,SID104192026,-0.28,0.26,0.28,0.02,
lost,SID104201589,1.27,0.88,,,
